# In the supplement of paper PMC8728848:
# The other results are listed elsewhere or left out.
# Tests used:
# Test in all cases: glycan array binding signal (z-score within array); higher = stronger binding
# Conditions in all cases: glycan notation: IUPAC condensed, linker removed
# [1] = biological target: Fuc(a1-3)[Gal3S(b1-4)]GlcNAc6S
# How it was run: (§1)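 Glycan array data came from 3228 arrays in the Consortium for Functional Glycomics database, and only arrays with an available protein sequence were kept. Glycan names were put into IUPAC-condensed notation, and columns mapping to the same glycan were averaged. The binding signal is a within-array Z-score, averaged across arrays of one protein sequence run at different concentrations or buffers and across linkers. A negative Z-score can be read as non-binding.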
# [2] = biological target: Fuc(a1-3)[GalNAc(b1-4)]GlcNAc
# How it was run: as §1
# [3] = biological target: Fuc(a1-3)[GalNAc(b1-4)]GlcNAc6S
# How it was run: as §1
# Fuc(a1-4)GlcNAc = biological target: Fuc(a1-4)GlcNAc
# How it was run: as §1
# Fuc(b1-3)GlcNAc = biological target: Fuc(b1-3)GlcNAc
# How it was run: as §1
# Gal(a1-2)Gal = biological target: Gal(a1-2)Gal
# How it was run: as §1
# Gal(a1-3)Gal = biological target: Gal(a1-3)Gal
# How it was run: as §1
# Gal(a1-3)Gal(b1-3)GlcNAc = biological target: Gal(a1-3)Gal(b1-3)GlcNAc
# How it was run: as §1
# [4] = biological target: Gal(a1-3)Gal(b1-3)GlcNAc(b1-2)Man
# How it was run: as §1
# [5] = biological target: Gal(a1-3)Gal(b1-3)GlcNAc(b1-2)Man(a1-3)[Gal(a1-3)Gal(b1-3)GlcNAc(b1-2)Man(a1-6)]Man(b1-4)GlcNAc(b1-4)GlcNAc
# How it was run: as §1
# [6] = biological target: Gal(a1-3)Gal(b1-3)GlcNAc(b1-3)GalNAc
# How it was run: as §1
# [7] = biological target: Gal(a1-3)Gal(b1-3)GlcNAc(b1-6)GalNAc
# How it was run: as §1
# [8] = biological target: Gal(a1-3)Gal(b1-3)[Fuc(a1-4)]GlcNAc(b1-2)Man(a1-3)[Gal(a1-3)Gal(b1-3)[Fuc(a1-4)]GlcNAc(b1-2)Man(a1-6)]Man(b1-4)GlcNAc(b1-4)GlcNAc
# How it was run: as §1
# Gal(a1-3)Gal(b1-4)Glc = biological target: Gal(a1-3)Gal(b1-4)Glc
# How it was run: as §1
# Gal(a1-3)Gal(b1-4)GlcNAc = biological target: Gal(a1-3)Gal(b1-4)GlcNAc
# How it was run: as §1
# [9] = biological target: Gal(a1-3)Gal(b1-4)GlcNAc(b1-2)Man
# How it was run: as §1
# [10] = biological target: Gal(a1-3)Gal(b1-4)GlcNAc(b1-2)Man(a1-3)[Gal(a1-3)Gal(b1-4)GlcNAc(b1-2)Man(a1-6)]Man(b1-4)GlcNAc(b1-4)GlcNAc
# How it was run: as §1
# [11] = biological target: Gal(a1-3)Gal(b1-4)GlcNAc(b1-3)GalNAc
# How it was run: as §1
# [12] = biological target: Gal(a1-3)Gal(b1-4)GlcNAc(b1-6)GalNAc
# How it was run: as §1
# [13] = biological target: Gal(a1-3)Gal(b1-4)[Fuc(a1-3)]GlcNAc
# How it was run: as §1
# [14] = biological target: Gal(a1-3)Gal(b1-4)[Fuc(a1-3)]GlcNAc(b1-2)Man(a1-3)[Gal(a1-3)Gal(b1-4)[Fuc(a1-3)]GlcNAc(b1-2)Man(a1-6)]Man(b1-4)GlcNAc(b1-4)GlcNAc
# How it was run: as §1
# Gal(a1-3)GalNAc = biological target: Gal(a1-3)GalNAc
# How it was run: as §1
# [15] = biological target: Gal(a1-3)[Gal(a1-4)]Gal(b1-4)GlcNAc
# How it was run: as §1
# [16] = biological target: Gal(a1-4)Gal(b1-3)GlcNAc(b1-2)Man(a1-3)[Gal(a1-4)Gal(b1-3)GlcNAc(b1-2)Man(a1-6)]Man(b1-4)GlcNAc(b1-4)GlcNAc
# How it was run: as §1
# Gal(a1-4)Gal(b1-4)Glc = biological target: Gal(a1-4)Gal(b1-4)Glc
# How it was run: as §1
# Gal(a1-4)Gal(b1-4)GlcNAc = biological target: Gal(a1-4)Gal(b1-4)GlcNAc
# How it was run: as §1
# [17] = biological target: Gal(a1-4)Gal(b1-4)GlcNAc(b1-2)Man(a1-3)[Gal(a1-4)Gal(b1-4)GlcNAc(b1-2)Man(a1-6)]Man(b1-4)GlcNAc(b1-4)GlcNAc
# How it was run: as §1
# [18] = biological target: Gal(a1-4)Gal(b1-4)GlcNAc(b1-3)Gal(b1-4)Glc
# How it was run: as §1
# Gal(a1-4)GlcNAc = biological target: Gal(a1-4)GlcNAc
# How it was run: as §1
# Gal(a1-6)Glc = biological target: Gal(a1-6)Glc
# How it was run: as §1
# Gal(b1-2)Gal = biological target: Gal(b1-2)Gal
# How it was run: as §1
# Gal(b1-3)Gal = biological target: Gal(b1-3)Gal
# How it was run: as §1
# Gal(b1-3)Gal(b1-4)GlcNAc = biological target: Gal(b1-3)Gal(b1-4)GlcNAc
# How it was run: as §1
# Gal(b1-3)GalNAc = biological target: Gal(b1-3)GalNAc
# How it was run: as §1
# [19] = biological target: Gal(b1-3)GalNAc(a1-3)[Fuc(a1-2)]Gal(b1-4)Glc
# How it was run: as §1
# [20] = biological target: Gal(b1-3)GalNAc(a1-3)[Fuc(a1-2)]Gal(b1-4)GlcNAc
# How it was run: as §1
# Gal(b1-3)GalNAc(b1-3)Gal = biological target: Gal(b1-3)GalNAc(b1-3)Gal
# How it was run: as §1
binder,measurement,setting,value
EUL D1A (Oryza sativa) (protein) MFGFGHHHNQAPAAPSDPNQIFKIFCRANENYCLTVRDSAVVLAPVNPKDEHQHWFKDMRFSTKVKDGEGMPAFALVNKATGLAVKHSLGQSHPVKLVPFNPEYEDASVLWTESKDVGKGFRCIRMVNNTRLNLDAFHGDKDHGGVRDGTTVVLWEWCKGDNQSWKILPWGPEAHSSSPGAATACTIGGVPVHTVRVFSAAGEDYCLTVRNGTACLAPKNPRDDYQHWIKDMRHSNKIRDEEGYPAFALVNKVTGEAIKHSTGQGHPVKLVPYNPEYQDESVLWTESKDVGKGFRCIRMVNNIYLNFDAFHGDKDHGGIHDGTEIVLWKWCEGDNQRWKILPWILEQKLISEEDLNSAVDHHHHHH,glycan array binding signal (z-score),[1],1.49
same,glycan array binding signal (z-score),[2],0.169
same,glycan array binding signal (z-score),[3],-0.319
same,glycan array binding signal (z-score),Fuc(a1-4)GlcNAc,0.048
same,glycan array binding signal (z-score),Fuc(b1-3)GlcNAc,0.076
same,glycan array binding signal (z-score),Gal(a1-2)Gal,-1.3
same,glycan array binding signal (z-score),Gal(a1-3)Gal,-0.038
same,glycan array binding signal (z-score),Gal(a1-3)Gal(b1-3)GlcNAc,-1.66
same,glycan array binding signal (z-score),[4],0.221
same,glycan array binding signal (z-score),[5],1.86
same,glycan array binding signal (z-score),[6],-0.23
same,glycan array binding signal (z-score),[7],0.418
same,glycan array binding signal (z-score),[8],1.51
same,glycan array binding signal (z-score),Gal(a1-3)Gal(b1-4)Glc,-0.021
same,glycan array binding signal (z-score),Gal(a1-3)Gal(b1-4)GlcNAc,-0.8
same,glycan array binding signal (z-score),[9],0.232
same,glycan array binding signal (z-score),[10],0.16
same,glycan array binding signal (z-score),[11],-1.15
same,glycan array binding signal (z-score),[12],1.3
same,glycan array binding signal (z-score),[13],-0.6
same,glycan array binding signal (z-score),[14],1.75
same,glycan array binding signal (z-score),Gal(a1-3)GalNAc,0.239
same,glycan array binding signal (z-score),[15],0.063
same,glycan array binding signal (z-score),[16],1.15
same,glycan array binding signal (z-score),Gal(a1-4)Gal(b1-4)Glc,0.086
same,glycan array binding signal (z-score),Gal(a1-4)Gal(b1-4)GlcNAc,0.656
same,glycan array binding signal (z-score),[17],-0.078
same,glycan array binding signal (z-score),[18],-1.06
same,glycan array binding signal (z-score),Gal(a1-4)GlcNAc,0.202
same,glycan array binding signal (z-score),Gal(a1-6)Glc,-0.051
same,glycan array binding signal (z-score),Gal(b1-2)Gal,1.06
same,glycan array binding signal (z-score),Gal(b1-3)Gal,-0.722
same,glycan array binding signal (z-score),Gal(b1-3)Gal(b1-4)GlcNAc,-0.557
same,glycan array binding signal (z-score),Gal(b1-3)GalNAc,-0.384
same,glycan array binding signal (z-score),[19],0.111
same,glycan array binding signal (z-score),[20],-1.11
same,glycan array binding signal (z-score),Gal(b1-3)GalNAc(b1-3)Gal,-0.437

# Some of the entries so far, as tab-separated lines.
binder	measurement	setting	value
EUL D1A (Oryza sativa) (protein) MFGFGHHHNQAPAAPSDPNQIFKIFCRANENYCLTVRDSAVVLAPVNPKDEHQHWFKDMRFSTKVKDGEGMPAFALVNKATGLAVKHSLGQSHPVKLVPFNPEYEDASVLWTESKDVGKGFRCIRMVNNTRLNLDAFHGDKDHGGVRDGTTVVLWEWCKGDNQSWKILPWGPEAHSSSPGAATACTIGGVPVHTVRVFSAAGEDYCLTVRNGTACLAPKNPRDDYQHWIKDMRHSNKIRDEEGYPAFALVNKVTGEAIKHSTGQGHPVKLVPYNPEYQDESVLWTESKDVGKGFRCIRMVNNIYLNFDAFHGDKDHGGIHDGTEIVLWKWCEGDNQRWKILPWILEQKLISEEDLNSAVDHHHHHH	glycan array binding signal (z-score)	[1]	1.49
same	glycan array binding signal (z-score)	[2]	0.169
same	glycan array binding signal (z-score)	[3]	-0.319
